Test results from patent US8765777B2, “Compositions and methods of use for tyrosine kinase inhibitors to treat pathogenic infection” (priority 2008, dated 2014).

Key:
Polyoma virus = test: Cytopathic effects of Polyoma virus on 3T3 cells; assay type: cell-based; conditions: 10 μM, 3T3 monolayers infected for 5 days
[1] = test system: VV extracellular enveloped virus (EEV); assay type: cell-based, Vaccinia virus; conditions: 10 μM

In the case of `Cc1ccc(NC(=O)c2ccc(CN3CCN(C)CC3)cc2)cc1Nc1nccc(-c2cccnc2)n1` [STI-571, 4-[(4-Methyl-1-piperazinyl)methyl]-N-[4-methyl-3-[[4-(3-pyridinyl)-2-pyrimidinyl]amino]-phenyl]benzamide methanesulfonate], the “extent of cell killing by Polyoma virus” value (Polyoma virus) is reported as “reduced the extent of killing”, the “fold reduction in plaque number in the presence or absence of mAb 2D5” value [1] is reported as “same fold reduction” and the “VV load in mice” value (VV; 100 mg/kg/day, continuous release osmotic pumps, FIG. 4) is reported as “reduces VV load”. For the same compound, the “viral load lower than in untreated mice” value (VV; real-time PCR, Experiment 6) was 6 orders of magnitude.
